Experimental data: the supplement of paper PMC6411743
± gives the standard deviation of the averaged measurements. This is one part of the list.

Protein sequences, listed by entry. Tags and fused reporters are not part of them. Lines headed by an entry give the natural chain unless they say otherwise; changes in a name come on top.
UniProt P06239: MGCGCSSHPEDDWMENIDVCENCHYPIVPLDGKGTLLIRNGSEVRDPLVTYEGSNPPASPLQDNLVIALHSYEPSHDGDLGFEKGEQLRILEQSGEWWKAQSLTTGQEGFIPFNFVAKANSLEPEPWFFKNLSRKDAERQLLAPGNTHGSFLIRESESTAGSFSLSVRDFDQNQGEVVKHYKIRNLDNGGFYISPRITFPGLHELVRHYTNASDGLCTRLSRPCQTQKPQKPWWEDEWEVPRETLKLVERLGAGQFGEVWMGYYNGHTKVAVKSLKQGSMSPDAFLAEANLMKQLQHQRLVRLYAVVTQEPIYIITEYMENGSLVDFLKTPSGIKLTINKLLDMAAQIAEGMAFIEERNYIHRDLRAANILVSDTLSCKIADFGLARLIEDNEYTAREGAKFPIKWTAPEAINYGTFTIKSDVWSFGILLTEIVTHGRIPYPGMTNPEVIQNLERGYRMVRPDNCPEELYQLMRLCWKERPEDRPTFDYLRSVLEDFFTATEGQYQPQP
UniProt O94874: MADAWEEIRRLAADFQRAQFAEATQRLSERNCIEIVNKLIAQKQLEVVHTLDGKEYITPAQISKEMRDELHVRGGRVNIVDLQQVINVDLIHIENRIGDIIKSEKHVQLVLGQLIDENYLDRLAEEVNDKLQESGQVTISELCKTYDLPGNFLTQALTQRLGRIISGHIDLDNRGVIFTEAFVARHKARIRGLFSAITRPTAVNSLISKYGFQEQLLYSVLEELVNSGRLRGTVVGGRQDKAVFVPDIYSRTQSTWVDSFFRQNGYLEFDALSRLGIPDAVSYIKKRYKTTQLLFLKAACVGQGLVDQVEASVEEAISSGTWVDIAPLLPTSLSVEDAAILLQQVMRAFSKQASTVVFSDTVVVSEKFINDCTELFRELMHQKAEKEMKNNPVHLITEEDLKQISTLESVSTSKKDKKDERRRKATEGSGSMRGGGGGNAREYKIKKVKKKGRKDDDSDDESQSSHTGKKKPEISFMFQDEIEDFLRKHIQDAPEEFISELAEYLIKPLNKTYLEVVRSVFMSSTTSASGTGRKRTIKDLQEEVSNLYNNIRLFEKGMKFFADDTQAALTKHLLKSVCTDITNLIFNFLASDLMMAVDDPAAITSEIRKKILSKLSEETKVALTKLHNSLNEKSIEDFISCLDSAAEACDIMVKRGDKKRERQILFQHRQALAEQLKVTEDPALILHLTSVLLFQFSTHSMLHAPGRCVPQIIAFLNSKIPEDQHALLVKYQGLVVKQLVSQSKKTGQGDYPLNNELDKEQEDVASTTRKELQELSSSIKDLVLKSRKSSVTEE
UniProt O95466, whole entry: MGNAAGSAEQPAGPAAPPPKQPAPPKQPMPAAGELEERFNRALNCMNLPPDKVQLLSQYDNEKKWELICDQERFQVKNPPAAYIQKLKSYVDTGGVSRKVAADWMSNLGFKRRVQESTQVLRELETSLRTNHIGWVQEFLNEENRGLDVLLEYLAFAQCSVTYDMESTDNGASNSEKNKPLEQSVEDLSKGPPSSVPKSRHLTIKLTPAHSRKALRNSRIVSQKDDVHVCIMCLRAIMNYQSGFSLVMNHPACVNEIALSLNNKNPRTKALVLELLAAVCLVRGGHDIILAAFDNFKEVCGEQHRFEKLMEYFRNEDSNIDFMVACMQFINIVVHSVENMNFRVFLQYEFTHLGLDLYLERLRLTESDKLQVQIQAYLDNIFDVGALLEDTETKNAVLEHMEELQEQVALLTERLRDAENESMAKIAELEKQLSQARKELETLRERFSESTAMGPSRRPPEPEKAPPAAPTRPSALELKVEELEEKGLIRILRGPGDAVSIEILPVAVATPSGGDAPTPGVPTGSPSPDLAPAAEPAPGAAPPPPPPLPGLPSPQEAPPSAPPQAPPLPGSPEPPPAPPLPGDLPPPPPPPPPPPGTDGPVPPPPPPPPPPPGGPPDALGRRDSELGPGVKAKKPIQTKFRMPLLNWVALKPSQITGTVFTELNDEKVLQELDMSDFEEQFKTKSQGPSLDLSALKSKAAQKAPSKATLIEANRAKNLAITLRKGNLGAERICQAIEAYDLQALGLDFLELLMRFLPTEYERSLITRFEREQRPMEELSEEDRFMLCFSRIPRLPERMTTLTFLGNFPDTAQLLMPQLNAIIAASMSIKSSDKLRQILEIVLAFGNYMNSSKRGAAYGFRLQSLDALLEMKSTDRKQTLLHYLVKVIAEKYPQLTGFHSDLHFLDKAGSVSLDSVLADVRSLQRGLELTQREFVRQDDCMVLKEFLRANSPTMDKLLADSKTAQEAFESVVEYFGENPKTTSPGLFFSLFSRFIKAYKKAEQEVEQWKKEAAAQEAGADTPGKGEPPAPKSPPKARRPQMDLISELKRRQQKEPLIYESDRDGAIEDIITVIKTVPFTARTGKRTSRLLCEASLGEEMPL
UniProt O95639, whole entry: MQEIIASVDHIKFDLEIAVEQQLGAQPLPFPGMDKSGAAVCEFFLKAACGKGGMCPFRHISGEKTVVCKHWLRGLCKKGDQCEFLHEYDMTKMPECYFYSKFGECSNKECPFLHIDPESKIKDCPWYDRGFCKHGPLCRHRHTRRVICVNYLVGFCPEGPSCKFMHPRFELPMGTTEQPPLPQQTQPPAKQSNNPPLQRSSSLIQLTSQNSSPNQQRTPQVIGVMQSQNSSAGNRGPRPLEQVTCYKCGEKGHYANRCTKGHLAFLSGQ
UniProt O75794: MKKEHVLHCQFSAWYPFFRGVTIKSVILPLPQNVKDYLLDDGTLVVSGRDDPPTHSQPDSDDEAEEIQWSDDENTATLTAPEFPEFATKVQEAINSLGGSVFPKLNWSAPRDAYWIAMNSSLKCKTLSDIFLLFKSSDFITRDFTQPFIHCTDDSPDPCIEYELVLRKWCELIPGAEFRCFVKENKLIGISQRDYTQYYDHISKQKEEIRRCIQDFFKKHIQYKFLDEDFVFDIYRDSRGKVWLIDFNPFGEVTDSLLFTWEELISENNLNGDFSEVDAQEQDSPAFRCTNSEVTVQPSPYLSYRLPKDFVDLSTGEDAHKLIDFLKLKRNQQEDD

Compound: Nc1nc2c(ncn2[C@@H]2O[C@H](COP(=O)(O)OP(=O)(O)OP(=O)(O)O)[C@@H](O)[C@H]2O)c(=O)[nH]1 [guanosine triphosphate]
Experiment: NP40-soluble protein abundance relative to vehicle (solubility fold change) (ratio); higher = more soluble protein in presence of GTP
Description: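 Solubility proteome profiling in Jurkat crude lysate. Lysate was treated with Mg-GTP (0.1-10 mM) for 10 min at room temperature and 3 min at 37 °C, then solubilised with 0.8% NP40 and benzonase, followed by ultracentrifugation. Proteins were quantified by TMT10 LC-MS/MS; the value is the NP40-soluble abundance relative to the NP40-processed vehicle, from 3 independent experiments.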

| Target | NP40-soluble protein abundance (concentration: 0.1mM) | NP40-soluble protein abundance (concentration: 0.5mM) | NP40-soluble protein abundance (concentration: 1mM) | NP40-soluble protein abundance (concentration: 2mM) | NP40-soluble protein abundance (concentration: 4mM) | NP40-soluble protein abundance (concentration: 6mM) | NP40-soluble protein abundance (concentration: 8mM) | NP40-soluble protein abundance (concentration: 10mM) |
| --- | --- | --- | --- | --- | --- | --- | --- | --- |
| UniProt P06239 and related entries | 1.013 ± 0.0087 | 1.04 ± 0.034 | 0.994 ± 0.022 | 1 ± 0.032 | 1 ± 0.023 | 0.963 ± 0.015 | 0.929 ± 0.026 | 0.919 ± 0.039 |
| UniProt O94874 | 0.9794 ± 0.0063 | 0.9735 ± 0.007 | 0.939 ± 0.018 | 0.9783 ± 0.0089 | 0.995 ± 0.023 | 1.019 ± 0.0033 | 1 ± 0.016 | 1.01 ± 0.031 |
| UniProt O95466-2 | 0.974 ± 0.05 | 0.968 ± 0.035 | 1.01 ± 0.055 | 0.979 ± 0.058 | 0.988 ± 0.051 | 0.977 ± 0.051 | 0.999 ± 0.043 | 0.995 ± 0.046 |
| UniProt O95639 and related entries | 0.989 ± 0.087 | 1.1 ± 0.036 | 1.11 ± 0.11 | 1.22 ± 0.13 | 1.21 ± 0.15 | 1.3 ± 0.12 | 1.31 ± 0.19 | 1.34 ± 0.1 |
| CDC123 (UniProt O75794) | 1.03 ± 0.016 | 1.02 ± 0.023 | 1.014 ± 0.0079 | 0.972 ± 0.033 | 1 ± 0.027 | 0.96 ± 0.053 | 1.01 ± 0.02 | 0.922 ± 0.034 |
